Laboratory results reported in article PMC4187101.

Amino acid sequences for entries named in this document (tags omitted). A change or cut given only in a name is not applied to a line headed by its entry.
UniProt P14385: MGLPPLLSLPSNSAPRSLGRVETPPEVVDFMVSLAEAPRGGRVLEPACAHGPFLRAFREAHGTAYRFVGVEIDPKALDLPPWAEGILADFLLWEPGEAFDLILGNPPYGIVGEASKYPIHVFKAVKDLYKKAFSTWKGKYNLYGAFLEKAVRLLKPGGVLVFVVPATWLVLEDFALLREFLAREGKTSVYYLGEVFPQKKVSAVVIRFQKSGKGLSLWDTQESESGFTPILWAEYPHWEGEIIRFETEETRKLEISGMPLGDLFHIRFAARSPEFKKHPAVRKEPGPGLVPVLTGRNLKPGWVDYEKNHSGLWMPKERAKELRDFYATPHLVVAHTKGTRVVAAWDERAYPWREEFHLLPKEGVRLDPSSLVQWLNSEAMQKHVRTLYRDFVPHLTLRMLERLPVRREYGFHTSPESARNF

Biological target: DNA adenine-N6 methyltransferase M.TaqI (Thermus aquaticus) (UniProt P14385)
Experiment: competition, 2-aminopurine fluorescence titration
Settings: strand 2 A9 = N6-methyl-dA, 20 mM TrisOAc pH 7.9, 10 mM Mg(OAc)2, 50 mM KOAc, 0.01% reduced Triton X-100, with 1 mM DTT (unlocked) or no reducing agent (locked), recombinant protein

Row | Sequence | Kd (strand 1 A9 = N6-methyl-dA) [nM] | Kd [nM]
1 | GCCGCTCGATGCCG (double strand) [fully methylated duplex 1AMe·2T] | 56 | –
2 | GCCGCTCGATGCCG (double strand) [hemi-methylated target duplex 1A·2T] | – | 2.9

Construct, isoform or probe ends are uncertain for at least one entry.
